In article PMC12772312, “The MAB_3513c gene plays a key role in intrinsic resistance of Mycobacterium abscessus to isoniazid and ethionamide” (Microbiology Spectrum, 2025):
Results are given in words; binding and its absence hold for the method and conditions named. Where a sequence is shown, tags or fusion partners need not be part of it.

Molecular target: Mycobacterium abscessus NudC with the P226Q point mutation (Mycobacterium abscessus)
Experiment: SEC; HiLoad 16/600 Superdex 75 pg, 20 mM Tris-HCl (pH 7.5), 150 mM NaCl, 1 mM 1,4-dithiothreitol, 4°C, 1 mL/min; retention times compared to molecular weight standards; both purified

B1: Mycobacterium abscessus NudC with the P226Q point mutation (enzyme, UniProt A0A0U1C370 1-310)
chain: MTFRLRNIPLLSRVGLDRADELRSNPEELAKGWAEAGLITLDVRGRVNIVDGQVVIEDAARIGDQPPEHAVFLGRIPGGRHVWAVRADLDEDSAPLLDLRRSGQLFDDTSAALLATAMAMLAWHDNAGYSPVDGSPTIPAKGGWVRVNSATGQEEFPRTDPAIICLVHDGGDRAVLGRQKFWPERMFSLLAGFVEAGESLEACVAREVAEEVGLTVTDVQYLGSQQWPFPRSIMLGFHAIGDPSQPFAFNDGEIAEADWFTRAEVRSALEAGDWTTASDSRLMLPGSISIAREIVESWAYAGEEPPAGRP
B1 was tested, and the binding was “no binding”.
